According to PubChem BioAssay AID1487 (National Center for Advancing Translational Sciences (NCATS), 2009):
Some of the results follow. Shown are side measurements of this screen, not its main read-out; they come without a call. Most of these compounds were active or inconclusive in the main read-out, so they are no random draw. Potencies come from curve fits of mixed quality, noted in brackets.

Assay: qHTS Assay for Modulators of Lamin A Splicing
Settings: HeLa LMNA splicing GFP/RFP minigene ratio, 48 h
Outline: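 S3 HeLa stable clones carrying a lamin A-EGFP splicing minigene plus DsRed2 were seeded at 600 cells/well in Opti-MEM with 2% FBS, pin-dosed and incubated 48 h at 37°C. Acumen cytometry (488 nm) gave the GFP/RFP total-intensity ratio.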

[1] = measured here: RFP viability control channel
[2] = measured here: GFP splicing reporter channel

SMILES	AC50 [1]	AC50 [2]
Cc1cc(=O)[nH]c2nnc(SCc3ccc(C(F)(F)F)cc3)n12	0.0316 µM [falling, full curve, poor fit]	–
O=C1NC(=Nc2ccc(Cl)cc2)SC1Cc1cccc(Cl)c1Cl (configuration not stated)	35.5 µM [rising, single point]	–
CCOC(=O)c1[nH]c(C)c(CCC(=O)Nc2cccc(SC)c2)c1C	2.24 µM [rising, full curve]	1 µM [rising, full curve]
CCN(CCCNC(=O)CN(C)S(=O)(=O)c1cccc2nsnc12)c1ccccc1	–	0.0178 µM [rising, full curve, poor fit]
CCn1c(=O)c(C(=O)CN2CCN(S(=O)(=O)c3ccc(C)cc3C)CC2)c(N)n(Cc2ccccc2)c1=O	15.8 µM [rising, single point]	–
Cc1cccc(-n2nc(CC#N)c(C#N)c2N)c1	5.01 µM [rising, single point]	0.0501 µM [rising, full curve]
S=C(Nc1ccc2nsnc2c1)N1CCCCC1	20 µM [rising, single point]	10 µM [rising, partial curve]
C=CCN1C=C2C(=O)C(C)(OC(=O)c3ccc(OC)cc3)C(=O)C(c3ccco3)=C2C=C1CCCC (configuration not stated)	3.98 µM [rising, single point]	–
COc1ccc(Nc2nc(N3CCCCC3)c3ccccc3n2)cc1	28.2 µM [falling, partial curve]	35.5 µM [falling, single point]
CCOc1ccc(OC(=O)c2c(-c3ccccc3Cl)noc2C)cc1	–	0.224 µM [falling, full curve, poor fit]
CCN(C(=O)C1CCCN(c2ncnc3c2nc2n3CCCCC2)C1)c1cccc(C)c1 (configuration not stated)	0.02 µM [falling, full curve, poor fit]	–
O=[N+]([O-])c1ccc(Oc2cccc(Br)c2)c2ccncc12	35.5 µM [rising, single point]	–
Cc1ccc(NC(=O)CN2C(=O)c3ccccc3Sc3ccc(C(=O)N4CCOCC4)cc32)c(Cl)c1	–	0.00794 µM [falling, full curve, poor fit]
CC(=O)c1cc2c(cc1NS(=O)(=O)c1ccc3c(c1)OCCO3)OCO2	12.6 µM [rising, single point]	–
Cc1cccc(C(=O)Nc2nnc(-c3ccco3)o2)c1	20 µM [rising, single point]	–
Cc1nn(-c2ccccc2Cl)c(Cl)c1/C=N/Nc1nc2ccccc2s1	2 µM [rising, partial curve, poor fit]	–
Cc1conc1NC(c1cccs1)c1ccc2cccnc2c1O (configuration not stated)	31.6 µM [rising, single point]	–
Cn1c(SCC(=O)NC2CCCC2)nnc1-c1ccncc1	–	0.0251 µM [rising, full curve, poor fit]
CC(=O)Oc1ccc2ccccc2c1C(NC(=O)Cc1ccccc1)c1ccc(Cl)cc1 (configuration not stated)	17.8 µM [falling, partial curve]	11.2 µM [falling, partial curve]
COc1cc(OC)cc(-c2nc3ccccc3c(=O)n2OC(=O)c2ccc(C)c(C)c2)c1	17.8 µM [rising, partial curve]	15.8 µM [rising, partial curve, poor fit]
COc1cc(/C=C/C(=O)Nc2ccc(N3CCCCC3)c(S(=O)(=O)Nc3ccccc3Cl)c2)cc(OC)c1OC	4.47 µM [rising, partial curve]	–
CCS(=O)(=O)Nc1ccc(Cc2ccc(NS(=O)(=O)CC)cc2)cc1	15.8 µM [rising, single point]	–
CC(c1ccco1)N(C(=O)c1ccccc1NS(=O)(=O)c1ccc(Cl)cc1)c1ccccn1 (configuration not stated)	31.6 µM [rising, single point]	–
CC(C)(C)NC[C@@H](O)c1ccc(O)c(CO)n1	0.501 µM [falling, partial curve]	0.355 µM [falling, partial curve, poor fit]
Cc1ccc(-c2nc3n(n2)Cc2ccccc2-3)cc1	35.5 µM [rising, single point]	–
CC(Sc1nnc(-c2ccccc2)c(-c2ccccc2)n1)C(=O)Nc1ncc(Cl)cc1Cl (configuration not stated)	11.2 µM [rising, partial curve]	–
COc1ccc(N2C(=O)/C(=C\c3ccco3)N=C2SCC(=O)NC(C)(C)C)cc1Cl	12.6 µM [rising, partial curve]	–
CCc1nnc(NC(=O)c2ccc(Cl)c(S(=O)(=O)N3CCc4ccccc43)c2)s1	7.08 µM [rising, full curve]	–

SMILES	AC50 [1]	AC50 [2]
CC(C)CNC(=O)c1cnn2c(C(F)(F)F)cc(C(F)(F)F)nc12	14.1 µM [falling, single point]	25.1 µM [falling, single point]
COc1cccc(-c2csc(N3CCN(C(=O)Nc4ccc(Cl)cc4)CC3)n2)c1	4.47 µM [falling, single point]	0.2 µM [falling, partial curve]
COC(=O)c1c(N)sc(Cc2ccccc2)c1C	4.47 µM [falling, partial curve, poor fit]	5.62 µM [falling, partial curve, poor fit]
Oc1ccc(/C=N/NC(=S)NCCN2CCOCC2)c(O)c1	5.62 µM [falling, single point]	–
COc1ccc(NC(=O)Nc2nnc(C(C)C)s2)cc1	35.5 µM [rising, single point]	35.5 µM [rising, single point]
COc1ccc(NC(=O)CN2CCN(Cc3ccc4c(c3)OCO4)CC2)cc1OC	5.01 µM [falling, single point]	3.55 µM [falling, single point]
Cc1cc(N2CCCC2)nc2ccc(NC(=S)NCCCN3CCC(C)CC3)cc12	2.51 µM [rising, partial curve, poor fit]	–
CCS(=O)(=O)N1N=C(c2cccc(NS(C)(=O)=O)c2)CC1c1ccc(C)cc1 (configuration not stated)	0.891 µM [rising, partial curve]	1.12 µM [rising, partial curve]
CC(=O)N1CCN(CC(=O)Nc2cccc(S(=O)(=O)N3CCCCCC3)c2)CC1	–	0.00158 µM [falling, full curve, poor fit]
CC(C)CSc1nc(N2CCOCC2)c2c(c1C#N)CC(C)(C)SC2	35.5 µM [rising, single point]	–
CC1(C)CC(=O)C2=C(C1)Oc1ncn(CCCn3ccnc3)c(=N)c1C2c1ccccc1 (configuration not stated)	11.2 µM [rising, single point]	–
COc1ccc(-c2nnc(Nc3nc4c(OC)cccc4s3)o2)c(OC)c1	28.2 µM [falling, single point]	22.4 µM [falling, single point]
CCn1c(C(=O)N2CCc3ccccc3C2)cc2oc3ccccc3c21	14.1 µM [rising, single point]	–
CN1c2ccccc2C(C)(C)[C@]12C=Cc1cc(O)ccc1O2	25.1 µM [rising, single point]	–
Cc1ccc(S(=O)(=O)N(C)Cc2ccc(C(=O)N/N=C/c3ccc(OC(F)F)cc3OC(F)F)cc2)cc1	7.94 µM [rising, partial curve]	10 µM [rising, partial curve]
C=CCSC1=NC(=O)/C(=C/c2cccs2)S1	–	11.2 µM [rising, partial curve, poor fit]
O=C(COc1ccc2ccc(=O)oc2c1)OCc1ccccc1	0.794 µM [rising, full curve, poor fit]	0.794 µM [rising, partial curve]
CCc1c(C)nc(Nc2nc(C)c3cc(OC)ccc3n2)[nH]c1=O	3.16 µM [rising, full curve]	1.41 µM [rising, full curve, poor fit]
CCOC(=O)c1c(C)[nH]c(CCC(=O)NCc2cc(Br)ccc2OC)c1C	15.8 µM [falling, partial curve, poor fit]	17.8 µM [falling, single point]
CCOC(=O)Cc1cc(=O)n2[nH]c(C)c(-c3ccc(Cl)cc3)c2n1	35.5 µM [falling, single point]	17.8 µM [falling, partial curve]
CC(C)C(=O)N1CCN(c2ccccc2NC(=O)Cc2ccc(Cl)cc2)CC1	22.4 µM [rising, single point]	12.6 µM [rising, single point]
COc1ccc(C(=O)NC(Nc2ccc(C)cc2)C(Cl)(Cl)Cl)cc1 (configuration not stated)	12.6 µM [rising, partial curve]	8.91 µM [rising, partial curve, poor fit]
COC(=O)c1cc(NC(=O)c2cccc(F)c2)cc(C(=O)OC)c1	0.00355 µM [rising, full curve, poor fit]	–
c1ccc(OCCCCn2cnc3ccccc32)cc1	12.6 µM [rising, partial curve]	–
N#C/C(=N\Nc1ccc(Cl)cc1)C(=O)c1ccccc1	5.01 µM [rising, single point]	–
Cc1ccc(C(=O)N2CCC(Cc3ccccc3)CC2)cc1[N+](=O)[O-]	–	35.5 µM [falling, single point]
CCc1cc2cc(C(=O)N3CCN(Cc4ccccc4)CC3)sc2s1	28.2 µM [rising, single point]	12.6 µM [rising, partial curve]

A second format for some results above:
SMILES | AC50 [1] | AC50 [2]
Cc1ccc(-c2nc3n(n2)Cc2ccccc2-3)cc1 | 35.5 µM [rising, single point] | –
CC(Sc1nnc(-c2ccccc2)c(-c2ccccc2)n1)C(=O)Nc1ncc(Cl)cc1Cl (configuration not stated) | 11.2 µM [rising, partial curve] | –
COc1ccc(N2C(=O)/C(=C\c3ccco3)N=C2SCC(=O)NC(C)(C)C)cc1Cl | 12.6 µM [rising, partial curve] | –
